Data reported in PMC11252818.
Results are given in words; binding and its absence hold for the method and conditions named. Binding seen in cells or lysates may run through a third protein. Some results given as binding are weak or reduced against the parent protein; the word gives no strength. Where a sequence is shown, tags or fusion partners need not be part of it.

By UniProt entry, the sequences of proteins in these tests, tags left out. Where a name states a change or a piece, a line headed by the entry shows the natural chain unless it says otherwise.
UniProt Q9UPY5: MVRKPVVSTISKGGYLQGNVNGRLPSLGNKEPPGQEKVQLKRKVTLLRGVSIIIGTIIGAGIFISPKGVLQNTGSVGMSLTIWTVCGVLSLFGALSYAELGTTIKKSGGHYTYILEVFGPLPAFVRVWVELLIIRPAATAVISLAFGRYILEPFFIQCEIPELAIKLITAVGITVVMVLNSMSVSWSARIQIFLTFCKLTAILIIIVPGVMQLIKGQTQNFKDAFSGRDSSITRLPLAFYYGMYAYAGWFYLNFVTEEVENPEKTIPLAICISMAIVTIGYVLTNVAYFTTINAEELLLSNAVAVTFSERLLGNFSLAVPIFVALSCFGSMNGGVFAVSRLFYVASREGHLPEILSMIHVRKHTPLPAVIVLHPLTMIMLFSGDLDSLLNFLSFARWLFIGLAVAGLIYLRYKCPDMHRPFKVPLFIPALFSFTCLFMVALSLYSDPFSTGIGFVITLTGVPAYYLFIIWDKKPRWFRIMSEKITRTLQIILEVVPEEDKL

Biological target: T1, FLAG-KCTD10 (wild type) (UniProt Q9H3F6)
T1 sequence: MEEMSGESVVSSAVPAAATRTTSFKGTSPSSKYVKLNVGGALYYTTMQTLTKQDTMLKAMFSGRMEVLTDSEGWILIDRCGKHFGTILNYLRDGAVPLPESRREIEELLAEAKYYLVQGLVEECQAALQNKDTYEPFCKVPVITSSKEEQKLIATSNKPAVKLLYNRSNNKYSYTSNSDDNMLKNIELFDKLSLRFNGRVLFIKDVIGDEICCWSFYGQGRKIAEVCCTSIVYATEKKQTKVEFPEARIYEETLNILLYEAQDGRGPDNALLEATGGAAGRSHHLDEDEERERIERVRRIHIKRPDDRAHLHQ
Experiment: co-IP; HEK293 cells transfected with SLC7A11 wild type, MT-1 or MT-2 and KCTD10 ('indicated plasmids'), IP-IB (Fig. 2D)

For “MT-1: SLC7A11-1~470 (from UniProt Q9UPY5 1-470) (domain or fragment)”, the binding was “binds”.
For “MT-2: SLC7A11-44~501 (from UniProt Q9UPY5 44-501) (domain or fragment)”, the binding was “no binding”.
